Results are given in words; binding and its absence hold for the method and conditions named. In cells and extracts the contact can be indirect. Some binding calls cover weakened binding; strength is not graded here.
Target: LILRB3-hFc (full-length LILRB3 fused with hFc at the C-terminus) (human) (UniProt O75022)
Assay: co-immunoprecipitation in THP-1 cells stably expressing LILRB3-hFc

The chains behind the UniProt entries cited, without tags or fusion partners. Residues count along the entry.
UniProt O75022, residues 24-631: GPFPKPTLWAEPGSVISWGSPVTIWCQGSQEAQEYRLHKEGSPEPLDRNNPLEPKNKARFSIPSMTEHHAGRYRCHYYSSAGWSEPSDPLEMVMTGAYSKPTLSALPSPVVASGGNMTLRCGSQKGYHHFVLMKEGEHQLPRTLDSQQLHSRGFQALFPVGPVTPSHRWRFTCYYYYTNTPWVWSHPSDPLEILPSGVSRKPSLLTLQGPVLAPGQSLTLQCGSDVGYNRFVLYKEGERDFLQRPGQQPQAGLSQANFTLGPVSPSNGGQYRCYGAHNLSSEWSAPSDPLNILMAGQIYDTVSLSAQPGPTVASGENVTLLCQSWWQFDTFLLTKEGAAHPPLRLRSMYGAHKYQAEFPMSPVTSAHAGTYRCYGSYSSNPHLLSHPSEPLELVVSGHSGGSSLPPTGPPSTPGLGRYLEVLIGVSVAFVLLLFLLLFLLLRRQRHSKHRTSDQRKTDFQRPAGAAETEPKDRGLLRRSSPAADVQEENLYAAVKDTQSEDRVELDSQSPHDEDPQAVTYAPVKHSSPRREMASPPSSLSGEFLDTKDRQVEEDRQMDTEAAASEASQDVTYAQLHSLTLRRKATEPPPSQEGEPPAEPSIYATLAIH
UniProt P29350: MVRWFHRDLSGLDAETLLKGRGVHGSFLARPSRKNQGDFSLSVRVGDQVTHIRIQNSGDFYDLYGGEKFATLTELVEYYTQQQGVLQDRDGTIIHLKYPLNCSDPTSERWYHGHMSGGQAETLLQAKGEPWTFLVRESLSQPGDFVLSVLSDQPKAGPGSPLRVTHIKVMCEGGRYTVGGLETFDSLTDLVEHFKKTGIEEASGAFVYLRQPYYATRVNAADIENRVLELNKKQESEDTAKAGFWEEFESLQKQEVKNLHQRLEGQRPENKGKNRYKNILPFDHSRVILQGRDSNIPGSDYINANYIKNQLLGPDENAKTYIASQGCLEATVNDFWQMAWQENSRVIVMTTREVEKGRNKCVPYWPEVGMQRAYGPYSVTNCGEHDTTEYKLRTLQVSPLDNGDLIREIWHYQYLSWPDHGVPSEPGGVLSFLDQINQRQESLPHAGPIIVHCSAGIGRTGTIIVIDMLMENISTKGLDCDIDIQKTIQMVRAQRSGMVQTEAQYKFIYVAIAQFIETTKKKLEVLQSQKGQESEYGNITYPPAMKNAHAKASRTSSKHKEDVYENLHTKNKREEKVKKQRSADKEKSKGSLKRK

binding: binds
Substance: SHP-1 (from UniProt P29350 1-595) (enzyme)
